Data as given in US7795299B2, “Neo-tanshinlactone and analogs as potent and selective anti-breast cancer agents” (The University of North Carolina at Chapel Hill, priority 2004, dated 2010).
≈ marks a conversion by molar mass, not a printed value. For part of these data: At least one read-out could not be matched to a standard name with certainty. Some of these results come from one statement about several compounds together. For part of these data: At least one compound was matched to its structure with a doubt left.

Legend:
[1] = system: ER+ human breast cancer (MCF-7 and ZR-75-1); test: Comparison of potency and selectivity against ER+ breast cancer cell lines in vitro; format: cell-based
Method: In Vitro Anticancer Assay (Nakanishi, Y. et al., J. Med. Chem. 2003, 46, 3185). All stock cultures were grown in T-25 flasks. Freshly trypsinized cell suspensions were seeded in 96-well microtiter plates at densities of 1500-7500 cells per well with compounds added from DMSO-diluted stock. After 3 days in culture, attached cells were fixed with cold 50% trichloroacetic acid and then stained with 0.4% sulforhodamine B (SRB). The absorbency at 562 nm was measured using a microplate reader after solubilizing the bound dye. The mean ED50 is the concentration of agent that reduces cell growth by 50% under the experimental conditions and is the average from at least three independent determinations that were reproducible and statistically significant (FIG. 2). […]
Biological assay. […] The absorbency at 562 nm was measured using a microplate reader after solubilizing the bound dye. […]

[2] = system: MDA-MB-231 (estrogen receptor negative breast cancer); test: In vitro anticancer assay (SRB), MDA-MB-231; format: cell-based, human; conditions: concentration that reduces cell growth by 50%, 3 days in culture
Method: (§1) All stock cultures were grown in T-25 flasks. Freshly trypsinized cell suspensions were seeded in 96-well microtiter plates at densities of 1500-7500 cells per well with compounds added from DMSO-diluted stock. After 3 days in culture, attached cells were fixed with cold 50% trichloroacetic acid and then stained with 0.4% sulforhodamine B (SRB). The absorbency at 562 nm was measured using a microplate reader after solubilizing the bound dye.
as §1, with “Biological assay. All” for “All”, “cultures are” for “cultures were”, “96-well microtitre” for “96-well microtiter”

Row | SMILES | times higher selectivity than compound 2a and tamoxifen [1] | ED50, MDA-MB-231 (ER−) [2] [µg/mL]
1 | Cc1cccc2c1ccc1c3occ(C)c3c(=O)oc21 [Compound 1, Neo-tanshinlactone] | more than 20 times | 
2 | CCc1cccc2c1ccc1c3occ(C)c3c(=O)oc21 [Compound 2c, 4-Ethyl-17-methyl-11,15-dioxa-cyclopenta[a]phenanthren-12-one] | more than 20 times | 13.5 (≈ 48.5 µM)
